# Patent US20090214427A1, “Novel peptides” (Licentia OY, priority 2004, published 2009)
# Amino acid sequences for entries named in this document (tags omitted). Residues count along the entry.
# UniProt P20151, residues 25-261: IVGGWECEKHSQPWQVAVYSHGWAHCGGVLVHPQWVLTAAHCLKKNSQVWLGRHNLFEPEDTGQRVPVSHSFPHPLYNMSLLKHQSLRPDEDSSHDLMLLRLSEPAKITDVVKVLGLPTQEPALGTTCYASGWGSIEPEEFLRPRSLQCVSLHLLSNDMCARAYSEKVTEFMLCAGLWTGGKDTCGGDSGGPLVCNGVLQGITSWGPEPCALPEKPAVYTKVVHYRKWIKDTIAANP
# These are yes or no findings as the source states them, for the method shown. Some results given as binding are weak or reduced against the parent protein; the word gives no strength.
# Target: recombinant wild-type (wt) human kallikrein 2 (human) (UniProt P20151)
# Assay: competition phage IFMA on hK2 captured by MAb 5E4; 5 µM synthetic peptide
binder,measurement,value
PARRPFPVTA [synthetic peptide HK2p03 (…)],binding,binds
AARRPFPAPS [synthetic peptide HK2p02 (…)],binding,binds
